# Inconclusive results, whose numbers are uncertain, are shown with a selection of clear calls. Calls of active or inactive are those of the source.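 The calls were made as follows: active = compounds lowering the signal with a fitted AC50 at or below a set concentration limit; inconclusive = flat curve with 30 to 70% inhibition, or a poor fit; inactive = the rest.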
# Protein sequences, listed by entry. Tags and fused reporters are not part of them. Lines headed by an entry give the natural chain unless they say otherwise; changes in a name come on top.
# UniProt Q9H257: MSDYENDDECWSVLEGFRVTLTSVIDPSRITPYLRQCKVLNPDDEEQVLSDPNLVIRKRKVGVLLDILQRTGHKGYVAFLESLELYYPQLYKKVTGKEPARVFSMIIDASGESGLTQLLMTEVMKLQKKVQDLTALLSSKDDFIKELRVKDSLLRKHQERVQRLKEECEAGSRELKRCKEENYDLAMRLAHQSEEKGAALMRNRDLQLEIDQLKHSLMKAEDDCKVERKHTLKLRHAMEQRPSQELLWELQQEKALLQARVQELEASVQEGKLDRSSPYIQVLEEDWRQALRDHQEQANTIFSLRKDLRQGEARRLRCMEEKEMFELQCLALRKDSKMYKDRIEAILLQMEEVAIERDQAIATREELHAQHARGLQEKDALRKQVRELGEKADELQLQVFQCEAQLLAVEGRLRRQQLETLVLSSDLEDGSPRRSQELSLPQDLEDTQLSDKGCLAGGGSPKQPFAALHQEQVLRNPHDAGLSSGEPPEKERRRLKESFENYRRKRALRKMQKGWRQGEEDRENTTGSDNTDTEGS
# UniProt Q9BVG3: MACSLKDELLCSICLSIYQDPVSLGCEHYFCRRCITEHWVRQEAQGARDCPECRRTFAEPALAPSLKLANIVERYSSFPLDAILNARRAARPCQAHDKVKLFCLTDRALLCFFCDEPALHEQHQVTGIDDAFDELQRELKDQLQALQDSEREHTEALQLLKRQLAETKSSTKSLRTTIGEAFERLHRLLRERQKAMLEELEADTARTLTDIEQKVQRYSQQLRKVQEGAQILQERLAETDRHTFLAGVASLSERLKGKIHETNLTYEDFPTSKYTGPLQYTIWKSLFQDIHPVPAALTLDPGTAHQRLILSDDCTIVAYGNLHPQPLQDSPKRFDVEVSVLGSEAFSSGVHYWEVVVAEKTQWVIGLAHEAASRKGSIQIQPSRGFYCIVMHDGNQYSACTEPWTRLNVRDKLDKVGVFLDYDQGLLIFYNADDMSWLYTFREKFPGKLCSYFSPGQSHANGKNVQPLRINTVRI
# Target: Caspase recruitment domain-containing protein 9 (Homo sapiens) + E3 ubiquitin-protein ligase TRIM62 (Homo sapiens) (UniProt Q9H257+Q9BVG3)
# Assay: CARD9/TRIM62 protein interaction inhibitors – cell lysate, HEK293FT lysates, Luminex bead readout, dose response (AID 1259338); also: reference of the scale not given here
# Conditions: Luminex bead PPI, MFI; at 80 µM (top of the series)
row,SMILES,"activity change, negative = inhibition"
1,O=C1c2cccnc2C(=O)N1Cc1ccc(S(=O)(=O)NCc2ccco2)cc1,inconclusive: 145%
2,Nc1ccccc1Sc1nccc(C(F)(F)F)n1,inactive: 7.03%

# From PubChem BioAssay AID1259338 (Broad Institute, 2017)
